Binding signal (log2 enrichment (interaction score)) data for 3 sequences are collected here from article PMC8384837.

Common to all, as to settings: yeast three-hybrid, YBZ-1, SC-Leu-His + 0.5 mM 3-AT, 4 days
The target of experiment [1] is T1, PUM1 PUF domain R6-LWL N1043L + Y1044W + Q1047L (UniProt Q14671).
T1 sequence: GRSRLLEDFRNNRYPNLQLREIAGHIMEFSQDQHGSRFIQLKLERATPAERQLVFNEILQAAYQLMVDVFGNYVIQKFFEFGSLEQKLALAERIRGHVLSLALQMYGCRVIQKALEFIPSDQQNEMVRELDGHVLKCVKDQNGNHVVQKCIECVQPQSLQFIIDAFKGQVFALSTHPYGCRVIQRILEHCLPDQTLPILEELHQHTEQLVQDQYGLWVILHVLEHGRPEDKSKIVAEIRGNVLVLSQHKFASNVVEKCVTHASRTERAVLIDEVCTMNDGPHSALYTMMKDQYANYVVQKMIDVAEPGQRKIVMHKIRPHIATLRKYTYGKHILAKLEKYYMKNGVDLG

Experiment [2] deals with T2, PUM1 PUF domain R6-LWS N1043L + Y1044W + Q1047S (UniProt Q14671).
T2 sequence: T1 sequence with L220S

The target of experiment [3] is T3, PUM1 PUF domain R6-LWV N1043L + Y1044W + Q1047V (UniProt Q14671).
T3 sequence: T1 sequence with L220V

Experiment [4] has as its target T4, PUM1 PUF domain R6-LYA N1043L + Q1047A (UniProt Q14671).
T4 sequence: T1 sequence with W217Y, L220A

Experiment [5] deals with T5, PUM1 PUF domain R6-LYG N1043L + Q1047G (UniProt Q14671).
T5 sequence: T1 sequence with W217Y, L220G

Experiment [6] addresses T6, PUM1 PUF domain R6-LYV N1043L + Q1047V (UniProt Q14671).
T6 sequence: T1 sequence with W217Y, L220V

Experiment [7] deals with T7, PUM1 PUF domain R6-NRS Y1044R + Q1047S (UniProt Q14671).
T7 sequence: T1 sequence with L216N, W217R, L220S

For experiment [8], the target named is T8, PUM1 PUF domain R6-RFG N1043R + Y1044F + Q1047G (UniProt Q14671).
T8 sequence: T1 sequence with L216R, W217F, L220G

In experiment [9] the target is T9, PUM1 PUF domain R6-RFS N1043R + Y1044F + Q1047S (UniProt Q14671).
T9 sequence: T1 sequence with L216R, W217F, L220S

In experiment [10] the target is T10, PUM1 PUF domain R6-RHG N1043R + Y1044H + Q1047G (UniProt Q14671).
T10 sequence: T1 sequence with L216R, W217H, L220G

The target in experiment [11] is T11, PUM1 PUF domain R6-SFC N1043S + Y1044F + Q1047C (UniProt Q14671).
T11 sequence: T1 sequence with L216S, W217F, L220C

Experiment [12] deals with T12, PUM1 PUF domain R6-SWA N1043S + Y1044W + Q1047A (UniProt Q14671).
T12 sequence: T1 sequence with L216S, L220A

Experiment [13] has as its target T13, PUM1 PUF domain R6-SYA N1043S + Q1047A (UniProt Q14671).
T13 sequence: T1 sequence with L216S, W217Y, L220A

The target of experiment [14] is T14, PUM1 PUF domain R6-THR N1043T + Y1044H + Q1047R (UniProt Q14671).
T14 sequence: T1 sequence with L216T, W217H, L220R

The target in experiment [15] is T15, PUM1 PUF domain R6-TWG N1043T + Y1044W + Q1047G (UniProt Q14671).
T15 sequence: T1 sequence with L216T, L220G

The target of experiment [16] is T16, PUM1 PUF domain R6-TWL N1043T + Y1044W + Q1047L (UniProt Q14671).
T16 sequence: T1 sequence with L216T

Experiment [17] deals with T17, PUM1 PUF domain R6-VFA N1043V + Y1044F + Q1047A (UniProt Q14671).
T17 sequence: T1 sequence with L216V, W217F, L220A

Experiment [18] deals with T18, PUM1 PUF domain R6-VFL N1043V + Y1044F + Q1047L (UniProt Q14671).
T18 sequence: T1 sequence with L216V, W217F

Experiment [19] concerns the target T19, PUM1 PUF domain R6-VWA N1043V + Y1044W + Q1047A (UniProt Q14671).
T19 sequence: T1 sequence with L216V, L220A

Experiment [20] addresses T20, PUM1 PUF domain R6-VWH N1043V + Y1044W + Q1047H (UniProt Q14671).
T20 sequence: T1 sequence with L216V, L220H

Substitutions are numbered along the chain they refer to. The list shows a part of the results. At the low end of the ranking the order means little.

On to “GGCUAGAACUAGUGGAUCCCCCGGCGCCCGGCGGCUCGAGCCCGGGUAAGUGGAAAUAGUCUGCAUGCCGCCGGGCGCCAUGCCUGCAGGUCGACUCUAGAAAACAUG”, for which the binding signal (log2 enrichment (interaction score)) in experiment [1] is less than -8.87; in experiment [2], less than -8.52; in [3], less than -8.25; in [4] it was less than -7.86; in experiment [5], less than -7.01; in experiment [6], less than -7.21. For the same sequence, the binding signal (log2 enrichment (interaction score)) in [7] was less than -7.7; in [8] it was less than -7.97; in experiment [9], less than -7.19; in experiment [10], less than -9.25; in [11], less than -8.31; in experiment [12], less than -8.85. Also, the binding signal (log2 enrichment (interaction score)) in experiment [13] is less than -7.43; in experiment [14], less than -7.73; in [15], less than -8.2; in experiment [16], less than -7.9; in experiment [17], -5.74; in experiment [18] it was less than -8.42. Besides, the values for the binding signal (log2 enrichment (interaction score)) in [19] and in [20] were less than -8.77 and less than -6.88, respectively.
“GGCUAGAACUAGUGGAUCCCCCGGCGCCCGGCGGCUCGAGCCCGGGUAAGUGAAAAUAGUCUGCAUGCCGCCGGGCGCCAUGCCUGCAGGUCGACUCUAGAAAACAUG”: the binding signal (log2 enrichment (interaction score)) in [14] is less than -8.17.
For the sequence “GGCUAGAACUAGUGGAUCCCCCGGCGCCCGGCGGCUCGAGCCCGGGUAAGUGCAAAUAGUCUGCAUGCCGCCGGGCGCCAUGCCUGCAGGUCGACUCUAGAAAACAUG”, the binding signal (log2 enrichment (interaction score)) is less than -6.95 in experiment [1]; less than -8.01 in experiment [2]; less than -7.62 in experiment [3]; less than -7.66 in [4]; less than -7.8 in [5]; less than -7.86 in experiment [6]. Further, the binding signal (log2 enrichment (interaction score)) in experiment [7] was less than -7.96; in experiment [8], less than -6.68; in experiment [9], less than -6.01; in experiment [10], less than -7.31; in experiment [11], less than -7.63; in experiment [12], less than -7.8. For the same sequence, the binding signal (log2 enrichment (interaction score)) is less than -7.17 in experiment [13]; less than -7.52 in experiment [15]; less than -7.9 in [16]; less than -8.05 in experiment [17]; less than -8.02 in experiment [18]; less than -8.56 in [19]. In experiment [20], the binding signal (log2 enrichment (interaction score)) was less than -6.5.
